# According to the supplement of paper PMC10849652:
# The chains behind the UniProt entries cited, without tags or fusion partners. Where a name states a change or a piece, a line headed by the entry shows the natural chain unless it says otherwise.
# UniProt Q12894: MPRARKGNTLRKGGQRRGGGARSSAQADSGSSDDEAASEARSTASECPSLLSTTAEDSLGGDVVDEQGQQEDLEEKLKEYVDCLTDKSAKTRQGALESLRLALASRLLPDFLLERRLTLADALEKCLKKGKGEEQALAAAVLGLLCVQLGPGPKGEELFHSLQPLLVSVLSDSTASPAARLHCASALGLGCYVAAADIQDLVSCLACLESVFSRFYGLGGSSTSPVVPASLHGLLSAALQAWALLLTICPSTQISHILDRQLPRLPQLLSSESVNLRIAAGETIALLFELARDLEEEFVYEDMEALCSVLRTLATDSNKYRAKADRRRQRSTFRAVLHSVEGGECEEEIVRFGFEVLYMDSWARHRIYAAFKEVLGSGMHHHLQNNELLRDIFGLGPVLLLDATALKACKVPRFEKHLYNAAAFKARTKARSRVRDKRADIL
# UniProt Q9UMF0: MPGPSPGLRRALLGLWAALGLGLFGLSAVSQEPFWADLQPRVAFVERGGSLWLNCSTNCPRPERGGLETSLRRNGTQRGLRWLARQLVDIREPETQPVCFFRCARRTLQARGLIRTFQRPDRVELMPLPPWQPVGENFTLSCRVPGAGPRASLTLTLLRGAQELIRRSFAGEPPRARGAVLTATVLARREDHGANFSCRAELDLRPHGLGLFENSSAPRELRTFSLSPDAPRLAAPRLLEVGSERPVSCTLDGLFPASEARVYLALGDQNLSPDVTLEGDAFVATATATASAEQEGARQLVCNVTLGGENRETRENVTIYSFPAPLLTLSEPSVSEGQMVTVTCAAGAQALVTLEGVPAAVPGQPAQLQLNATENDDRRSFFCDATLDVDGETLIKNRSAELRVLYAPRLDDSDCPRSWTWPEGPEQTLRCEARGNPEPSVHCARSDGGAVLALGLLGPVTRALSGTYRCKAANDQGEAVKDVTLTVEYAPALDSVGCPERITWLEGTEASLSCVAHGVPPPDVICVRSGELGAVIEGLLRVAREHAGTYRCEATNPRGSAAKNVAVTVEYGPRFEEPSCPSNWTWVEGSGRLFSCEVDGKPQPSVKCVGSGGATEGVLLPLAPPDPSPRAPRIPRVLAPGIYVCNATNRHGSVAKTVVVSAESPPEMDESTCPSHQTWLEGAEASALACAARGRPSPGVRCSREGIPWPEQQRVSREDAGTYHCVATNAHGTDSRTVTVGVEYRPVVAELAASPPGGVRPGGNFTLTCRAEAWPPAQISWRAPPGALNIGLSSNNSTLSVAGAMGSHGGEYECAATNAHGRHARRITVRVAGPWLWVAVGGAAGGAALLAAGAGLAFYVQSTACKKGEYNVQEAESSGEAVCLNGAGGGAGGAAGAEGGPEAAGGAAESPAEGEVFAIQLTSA
# UniProt Q96LU5: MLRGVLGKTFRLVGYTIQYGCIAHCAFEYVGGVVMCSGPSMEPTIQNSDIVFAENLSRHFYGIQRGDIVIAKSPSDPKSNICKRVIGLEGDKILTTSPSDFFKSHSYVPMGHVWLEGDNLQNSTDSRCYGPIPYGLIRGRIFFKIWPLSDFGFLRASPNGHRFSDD
# UniProt P01860, whole entry, looked up: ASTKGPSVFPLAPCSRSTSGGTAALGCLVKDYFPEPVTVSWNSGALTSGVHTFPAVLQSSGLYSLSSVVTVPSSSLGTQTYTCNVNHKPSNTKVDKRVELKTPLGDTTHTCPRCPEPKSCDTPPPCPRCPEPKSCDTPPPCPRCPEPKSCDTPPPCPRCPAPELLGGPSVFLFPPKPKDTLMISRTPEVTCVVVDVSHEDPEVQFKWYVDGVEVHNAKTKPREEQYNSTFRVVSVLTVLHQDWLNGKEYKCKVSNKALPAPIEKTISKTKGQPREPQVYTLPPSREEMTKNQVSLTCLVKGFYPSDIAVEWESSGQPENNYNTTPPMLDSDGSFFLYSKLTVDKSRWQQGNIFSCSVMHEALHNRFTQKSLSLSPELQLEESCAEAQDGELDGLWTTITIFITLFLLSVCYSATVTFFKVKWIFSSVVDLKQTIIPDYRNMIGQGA
# UniProt Q12906, whole entry, looked up: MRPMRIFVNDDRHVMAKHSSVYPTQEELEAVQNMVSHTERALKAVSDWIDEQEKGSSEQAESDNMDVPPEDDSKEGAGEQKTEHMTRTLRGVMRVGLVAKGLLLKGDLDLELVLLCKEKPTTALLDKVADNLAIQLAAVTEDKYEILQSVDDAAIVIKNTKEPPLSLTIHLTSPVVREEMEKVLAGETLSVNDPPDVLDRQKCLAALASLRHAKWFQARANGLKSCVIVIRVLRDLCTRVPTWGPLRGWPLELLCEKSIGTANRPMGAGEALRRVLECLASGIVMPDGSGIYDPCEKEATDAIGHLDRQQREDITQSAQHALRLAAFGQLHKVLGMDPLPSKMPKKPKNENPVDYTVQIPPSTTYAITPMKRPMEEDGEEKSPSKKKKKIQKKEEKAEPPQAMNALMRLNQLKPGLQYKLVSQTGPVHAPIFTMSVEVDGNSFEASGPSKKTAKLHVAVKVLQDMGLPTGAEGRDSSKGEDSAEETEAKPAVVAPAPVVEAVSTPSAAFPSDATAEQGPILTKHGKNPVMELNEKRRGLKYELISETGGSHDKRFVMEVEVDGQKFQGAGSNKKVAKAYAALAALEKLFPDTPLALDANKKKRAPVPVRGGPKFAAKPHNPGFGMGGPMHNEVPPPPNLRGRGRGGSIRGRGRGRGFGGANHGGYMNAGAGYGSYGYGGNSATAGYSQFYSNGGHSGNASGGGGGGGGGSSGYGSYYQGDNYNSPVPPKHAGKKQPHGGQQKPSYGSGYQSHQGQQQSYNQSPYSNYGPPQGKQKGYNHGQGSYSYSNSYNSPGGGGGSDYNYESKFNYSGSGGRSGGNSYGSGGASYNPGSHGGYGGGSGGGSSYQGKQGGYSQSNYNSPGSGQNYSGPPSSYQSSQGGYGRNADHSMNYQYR
# UniProt Q08334: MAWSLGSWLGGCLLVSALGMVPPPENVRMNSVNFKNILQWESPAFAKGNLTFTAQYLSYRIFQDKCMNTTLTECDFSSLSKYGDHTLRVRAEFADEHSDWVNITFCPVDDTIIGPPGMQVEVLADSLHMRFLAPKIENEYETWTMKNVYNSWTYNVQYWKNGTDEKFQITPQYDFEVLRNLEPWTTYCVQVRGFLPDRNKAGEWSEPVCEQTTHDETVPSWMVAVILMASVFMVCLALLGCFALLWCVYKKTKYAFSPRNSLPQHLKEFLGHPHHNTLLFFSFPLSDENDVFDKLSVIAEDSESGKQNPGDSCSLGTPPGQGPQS
# UniProt Q9NRR6: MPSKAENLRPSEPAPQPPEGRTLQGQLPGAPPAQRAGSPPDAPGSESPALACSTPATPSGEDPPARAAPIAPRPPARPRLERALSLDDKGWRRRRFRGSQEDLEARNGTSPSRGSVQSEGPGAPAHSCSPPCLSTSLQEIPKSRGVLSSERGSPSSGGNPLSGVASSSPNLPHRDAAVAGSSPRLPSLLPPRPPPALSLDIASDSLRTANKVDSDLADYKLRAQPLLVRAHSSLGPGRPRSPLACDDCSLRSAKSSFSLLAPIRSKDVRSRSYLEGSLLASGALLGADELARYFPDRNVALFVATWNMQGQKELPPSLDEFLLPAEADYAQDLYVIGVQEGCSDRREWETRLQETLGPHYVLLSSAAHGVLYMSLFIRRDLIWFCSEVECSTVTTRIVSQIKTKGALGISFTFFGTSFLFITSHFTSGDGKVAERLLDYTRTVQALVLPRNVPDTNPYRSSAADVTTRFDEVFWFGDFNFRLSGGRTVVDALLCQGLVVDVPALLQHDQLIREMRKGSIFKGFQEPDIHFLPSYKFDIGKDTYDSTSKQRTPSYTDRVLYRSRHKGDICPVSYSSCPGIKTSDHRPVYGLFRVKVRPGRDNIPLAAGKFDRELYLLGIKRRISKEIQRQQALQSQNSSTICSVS
# UniProt P15516: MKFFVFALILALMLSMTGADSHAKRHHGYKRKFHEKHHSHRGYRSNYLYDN
# UniProt P58166: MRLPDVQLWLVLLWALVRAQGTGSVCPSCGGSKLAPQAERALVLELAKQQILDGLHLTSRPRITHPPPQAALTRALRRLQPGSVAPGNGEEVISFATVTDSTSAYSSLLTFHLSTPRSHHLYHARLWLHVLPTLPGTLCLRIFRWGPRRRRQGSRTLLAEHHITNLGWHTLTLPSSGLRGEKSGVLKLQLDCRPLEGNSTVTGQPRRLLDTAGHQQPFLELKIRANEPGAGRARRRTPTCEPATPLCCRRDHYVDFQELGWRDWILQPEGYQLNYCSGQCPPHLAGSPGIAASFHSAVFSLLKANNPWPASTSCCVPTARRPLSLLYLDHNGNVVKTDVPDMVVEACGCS
# UniProt Q9BYX4: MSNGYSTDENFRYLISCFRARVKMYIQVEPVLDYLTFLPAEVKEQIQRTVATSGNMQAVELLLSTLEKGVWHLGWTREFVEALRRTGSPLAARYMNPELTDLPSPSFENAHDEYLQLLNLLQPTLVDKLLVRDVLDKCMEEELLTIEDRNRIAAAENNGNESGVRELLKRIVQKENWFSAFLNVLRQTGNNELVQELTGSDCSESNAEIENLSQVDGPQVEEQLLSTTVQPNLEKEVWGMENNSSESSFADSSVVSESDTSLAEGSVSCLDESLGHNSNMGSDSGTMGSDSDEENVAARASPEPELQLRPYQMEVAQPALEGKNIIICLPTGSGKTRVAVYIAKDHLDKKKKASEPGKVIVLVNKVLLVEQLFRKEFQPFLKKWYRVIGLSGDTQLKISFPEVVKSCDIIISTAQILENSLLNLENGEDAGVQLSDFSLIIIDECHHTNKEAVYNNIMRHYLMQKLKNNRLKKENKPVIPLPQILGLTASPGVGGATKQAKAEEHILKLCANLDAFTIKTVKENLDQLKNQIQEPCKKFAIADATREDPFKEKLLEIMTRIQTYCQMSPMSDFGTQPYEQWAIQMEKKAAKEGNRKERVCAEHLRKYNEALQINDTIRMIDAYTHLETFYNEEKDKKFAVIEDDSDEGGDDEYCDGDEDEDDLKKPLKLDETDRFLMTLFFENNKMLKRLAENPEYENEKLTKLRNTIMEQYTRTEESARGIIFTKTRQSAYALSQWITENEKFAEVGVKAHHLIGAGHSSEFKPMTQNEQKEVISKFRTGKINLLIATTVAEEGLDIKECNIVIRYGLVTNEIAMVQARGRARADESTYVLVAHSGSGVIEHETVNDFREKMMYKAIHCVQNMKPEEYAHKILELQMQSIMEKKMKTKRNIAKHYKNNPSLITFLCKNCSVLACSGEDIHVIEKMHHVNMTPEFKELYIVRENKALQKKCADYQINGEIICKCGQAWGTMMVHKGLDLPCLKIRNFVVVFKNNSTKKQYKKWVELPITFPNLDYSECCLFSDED
# UniProt Q14773: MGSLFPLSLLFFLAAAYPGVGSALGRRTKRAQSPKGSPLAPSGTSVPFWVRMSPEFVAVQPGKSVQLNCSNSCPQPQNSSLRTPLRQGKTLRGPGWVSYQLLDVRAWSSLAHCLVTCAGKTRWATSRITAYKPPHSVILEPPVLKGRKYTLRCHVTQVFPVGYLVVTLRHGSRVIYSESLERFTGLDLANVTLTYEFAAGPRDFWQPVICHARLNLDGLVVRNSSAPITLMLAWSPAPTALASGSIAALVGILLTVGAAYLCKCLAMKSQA
# UniProt P01877, whole entry, looked up: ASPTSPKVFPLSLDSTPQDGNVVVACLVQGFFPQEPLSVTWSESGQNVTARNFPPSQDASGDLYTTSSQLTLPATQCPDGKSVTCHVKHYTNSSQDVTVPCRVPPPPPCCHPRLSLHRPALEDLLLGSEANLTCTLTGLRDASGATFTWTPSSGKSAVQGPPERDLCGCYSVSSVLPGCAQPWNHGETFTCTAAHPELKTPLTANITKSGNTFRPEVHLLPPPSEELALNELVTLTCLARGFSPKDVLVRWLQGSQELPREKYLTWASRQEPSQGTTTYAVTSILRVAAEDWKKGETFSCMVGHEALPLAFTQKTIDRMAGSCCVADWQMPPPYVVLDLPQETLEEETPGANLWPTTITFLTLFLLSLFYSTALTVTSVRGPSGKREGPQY
# UniProt P50213: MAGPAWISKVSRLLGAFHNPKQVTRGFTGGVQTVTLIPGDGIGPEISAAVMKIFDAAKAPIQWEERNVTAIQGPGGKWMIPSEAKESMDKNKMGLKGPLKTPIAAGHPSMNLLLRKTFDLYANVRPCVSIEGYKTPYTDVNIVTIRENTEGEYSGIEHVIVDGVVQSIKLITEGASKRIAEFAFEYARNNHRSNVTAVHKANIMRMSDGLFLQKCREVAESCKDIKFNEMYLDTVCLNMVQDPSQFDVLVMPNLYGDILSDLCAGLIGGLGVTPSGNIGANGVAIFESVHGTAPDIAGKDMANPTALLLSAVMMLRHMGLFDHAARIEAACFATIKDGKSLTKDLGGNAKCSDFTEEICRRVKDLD
# UniProt Q9NQC8: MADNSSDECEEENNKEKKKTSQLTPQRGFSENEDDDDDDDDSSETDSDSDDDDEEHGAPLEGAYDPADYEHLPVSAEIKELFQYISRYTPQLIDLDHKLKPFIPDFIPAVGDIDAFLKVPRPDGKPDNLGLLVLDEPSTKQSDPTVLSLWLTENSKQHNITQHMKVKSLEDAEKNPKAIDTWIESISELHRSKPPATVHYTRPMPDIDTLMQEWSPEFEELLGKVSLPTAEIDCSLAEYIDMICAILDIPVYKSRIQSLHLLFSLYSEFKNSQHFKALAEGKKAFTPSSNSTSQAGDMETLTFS
# Some of the results follow.
# Legend:
# Assay in all cases: log2 fold change, soluble protein after heating vs DMSO (PISA); higher = thermal stabilisation; K562 lysate, 10 uM; active = over 0.2 and 3.5 SD of the protein, either way, in both replicates (recomputed)
# alvocidib = compound: CN1CC[C@H](c2c(O)cc(O)c3c(=O)cc(-c4ccccc4Cl)oc23)[C@H](O)C1 [alvocidib]
# Procedure, shortened: (§1)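 Pellets of K562 cells were dounce-homogenised in PBS pH 7.4 with 1 mM MgCl2, and the crude extract was held at 1 mg/mL protein for a 30 min treatment with 10 μM compound. Aliquots were heated for 3 min over 48°C-58°C and pooled before NP-40 was added to 0.5% at 4°C. The supernatant from 21,000xg for 90 min was quantified by TMTpro 16plex LC-MS/MS with channel sums equalised. Values are reported from duplicates as log-two fold change in thermal stability relative to solvent controls.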
# Tubastatin A = compound: CN1CCc2c(c3ccccc3n2Cc2ccc(C(=O)NO)cc2)C1 [Tubastatin A]
# Procedure, shortened: as §1
# [1] = compound: CNC(=O)C1=CC=CC=C1NC2=NC(=NC=C2Cl)NC3=C(C=C(C=C3)N4CCOCC4)OC
# Procedure, shortened: as §1
# defactinib = compound: CNC(=O)c1ccc(Nc2ncc(C(F)(F)F)c(NCc3nccnc3N(C)S(C)(=O)=O)n2)cc1 [defactinib]
# Procedure, shortened: as §1
# [2] = compound: CNc1nc(-c2ccc3c(N)n[nH]c3c2)cc(N2C[C@@H](C(=O)NC3CCCCC3)CC[C@H]2C)n1
# Procedure, shortened: as §1
# encorafenib = compound: COC(=O)N[C@@H](C)CNc1nccc(-c2cn(C(C)C)nc2-c2cc(Cl)cc(NS(C)(=O)=O)c2F)n1 [encorafenib]
# Procedure, shortened: as §1
# [3] = compound: COC(=O)[C@H](CCSC)NC(=O)C1=C(C=C(C=C1)NC[C@H](CS)N)C2=CC=CC=C2
# Procedure, shortened: as §1
# [4] = compound: COc1cc2nc(-c3cc(F)ccc3O)nc(N[C@@H]3CNC[C@H]3C(C)(C)O)c2cc1OC
# Procedure, shortened: as §1
# lapatinib = compound: CS(=O)(=O)CCNCc1ccc(-c2ccc3ncnc(Nc4ccc(OCc5cccc(F)c5)c(Cl)c4)c3c2)o1 [lapatinib]
# Procedure, shortened: as §1
# pictilisib = compound: CS(=O)(=O)N1CCN(Cc2cc3nc(-c4cccc5[nH]ncc45)nc(N4CCOCC4)c3s2)CC1 [pictilisib]
# Procedure, shortened: as §1
# crizotinib = compound: C[C@@H](Oc1cc(-c2cnn(C3CCNCC3)c2)cnc1N)c1c(Cl)ccc(F)c1Cl [crizotinib]
# Procedure, shortened: as §1
# [5] = compound: C[C@H](C1=CC=C(C=C1)C(=O)NC2=C3C=CNC3=NC=C2)N
# Procedure, shortened: as §1
# duvelisib = compound: C[C@H](Nc1ncnc2nc[nH]c12)c1cc2cccc(Cl)c2c(=O)n1-c1ccccc1 [duvelisib]
# Procedure, shortened: as §1
# gandotinib = compound: Cc1cc(Nc2cc(CN3CCOCC3)c3nc(C)c(Cc4ccc(Cl)cc4F)n3n2)n[nH]1 [gandotinib]
# Procedure, shortened: as §1
# tozasertib = compound: Cc1cc(Nc2cc(N3CCN(C)CC3)nc(Sc3ccc(NC(=O)C4CC4)cc3)n2)n[nH]1 [tozasertib]
# Procedure, shortened: as §1
# doramapimod = compound: Cc1ccc(-n2nc(C(C)(C)C)cc2NC(=O)Nc2ccc(OCCN3CCOCC3)c3ccccc23)cc1 [doramapimod]
# Procedure, shortened: as §1
# bafetinib = compound: Cc1ccc(NC(=O)c2ccc(CN3CC[C@H](N(C)C)C3)c(C(F)(F)F)c2)cc1Nc1nccc(-c2cncnc2)n1 [bafetinib]
# Procedure, shortened: as §1
# [6] = compound: Cc1cccc(CC(=O)N2CCc3c2ccc(-c2cn(C)c4ncnc(N)c24)c3F)n1
# Procedure, shortened: as §1
# alisertib = compound: COc1cc(Nc2ncc3c(n2)-c2ccc(Cl)cc2C(c2c(F)cccc2OC)=NC3)ccc1C(=O)O [alisertib]
# Procedure, shortened: as §1
# gefitinib = compound: COc1cc2ncnc(Nc3ccc(F)c(Cl)c3)c2cc1OCCCN1CCOCC1 [gefitinib]
# Procedure, shortened: as §1
Target,log2 fold change (alvocidib),log2 fold change (Tubastatin A),log2 fold change [1],log2 fold change (defactinib),log2 fold change [2],log2 fold change (encorafenib),log2 fold change [3],log2 fold change [4],log2 fold change (lapatinib),log2 fold change (pictilisib),log2 fold change (crizotinib),log2 fold change [5],log2 fold change (duvelisib),log2 fold change (gandotinib),log2 fold change (tozasertib),log2 fold change (doramapimod),log2 fold change (bafetinib),log2 fold change [6],log2 fold change (alisertib),log2 fold change (gefitinib)
IMPA2 (UniProt O14732),inactive: -0.185,inactive: 0.041,inactive: -0.032,inactive: -0.174,inactive: -0.014,inactive: -0.027,inactive: 0.059,inactive: -0.09,inactive: 0.042,inactive: 0.059,inactive: 0.048,inactive: -0.11,inactive: -0.03,inactive: 0.11,inactive: 0.044,inactive: 0.038,inactive: -0.019,inactive: 0.046,–,–
IFRD2 isoform 2 (UniProt Q12894),inactive: -0.034,inactive: 0.031,inactive: -0.043,inactive: -0.025,inactive: -0.002,inactive: 0.007,inactive: -0.027,inactive: 0.062,inactive: -0.075,inactive: 0.203,inactive: -0.04,inactive: -0.148,inactive: 0.047,inactive: 0.073,inactive: -0.034,inactive: -0.009,inactive: -0.076,inactive: 0.1,–,–
ICAM5 (UniProt Q9UMF0),inactive: -0.057,inactive: -0.046,inactive: 0.038,inactive: 0.076,inactive: -0.095,inactive: -0.035,inactive: -0.024,inactive: -0.003,inactive: -0.035,inactive: -0.06,inactive: 0.06,inactive: -0.201,inactive: 0.114,inactive: 0.228,inactive: -0.038,inactive: 0.023,inactive: 0.029,inactive: 0.296,inactive: -0.059,inactive: -0.014
IGKC (UniProt P01834),inactive: -0.079,inactive: 1.21,inactive: 0.209,–,inactive: -0.14,inactive: -0.11,inactive: -0.277,inactive: 0.412,inactive: 0.123,inactive: 0.293,–,inactive: 0.08,inactive: 0.155,inactive: 0.152,inactive: 0.014,–,inactive: 0.128,inactive: 0.529,inactive: -0.051,inactive: 0.04
ID1 (UniProt P41134),inactive: -0.015,inactive: 0.027,inactive: 0.013,inactive: 0.014,inactive: 0,–,–,–,–,inactive: -0.031,inactive: 0.025,inactive: 0.091,inactive: -0.056,inactive: 0.017,–,inactive: -0.033,inactive: 0.063,inactive: -0.005,inactive: -0.065,inactive: -0.155
IMMP1L (UniProt Q96LU5),inactive: 0.014,inactive: 0.024,inactive: 0.03,–,inactive: 0.138,inactive: -0.017,inactive: -0.152,inactive: -0.02,inactive: -0.034,inactive: -0.028,inactive: -0.041,inactive: 0.059,inactive: -0.041,inactive: -0.081,inactive: 0.229,inactive: 0.019,inactive: -0.055,inactive: -0.072,inactive: -0.029,inactive: -0.027
ICE1 (UniProt Q9Y2F5),inactive: -0.029,inactive: 0.121,–,–,inactive: -0.009,inactive: 0.114,inactive: 0.011,–,–,inactive: -0.19,inactive: 0.053,inactive: 0.032,inactive: 0.135,inactive: -0.042,inactive: 0.095,inactive: -0.116,inactive: -0.101,inactive: 0.013,inactive: 0.136,inactive: -0.009
IGHG3 (UniProt P01860),inactive: 0.03,inactive: 0.625,–,–,–,–,–,inactive: 0.009,inactive: 0.29,inactive: 0.324,–,inactive: 0.167,–,inactive: 0.17,–,–,inactive: -0.363,inactive: 0.171,inactive: -0.074,inactive: 0.388
ILF3 (UniProt Q12906),inactive: 0.045,–,inactive: 0.075,inactive: 0.059,inactive: -0.047,inactive: 0.08,inactive: -0.027,inactive: -0.04,inactive: 0.02,inactive: -0.012,inactive: 0.006,inactive: -0.092,inactive: 0.101,inactive: 0.013,inactive: -0.244,inactive: 0.003,inactive: -0.016,inactive: -0.285,–,–
HTRA3 (UniProt P83110),inactive: -0.761,–,–,–,–,–,–,–,–,–,–,inactive: -1.14,–,inactive: -0.052,–,–,–,inactive: 0.322,inactive: 0.127,inactive: 0.133
IL10RB (UniProt Q08334),–,inactive: 0.027,inactive: 0.002,inactive: 0.03,inactive: 0.029,inactive: -0.026,inactive: -0.008,inactive: -0.014,inactive: -0.074,–,inactive: 0.041,–,inactive: -0.058,–,inactive: -0.081,inactive: 0.085,–,–,inactive: 0.032,inactive: -0.044
IMPDH2 (UniProt H0Y4R1),inactive: -0.12,active: -0.554,–,inactive: 0.101,inactive: 0.014,inactive: -0.014,active: -0.505,inactive: -0.035,inactive: 0.074,inactive: -0.133,inactive: 0.19,inactive: -0.056,inactive: 0.011,inactive: 0.16,inactive: -0.028,inactive: 0.028,inactive: 0.022,inactive: 0.065,inactive: -0.038,inactive: 0.052
INPP5E (UniProt Q9NRR6),inactive: -0.102,–,inactive: 0.038,–,–,–,–,–,–,–,inactive: -0.085,inactive: -0.033,–,inactive: 0.105,–,inactive: -0.12,–,inactive: 0.243,inactive: -0.087,inactive: 0.035
IGKV3-20 (UniProt P01619),inactive: 0.106,–,–,–,inactive: 0.297,–,–,–,–,–,–,inactive: 0.235,inactive: 0.209,inactive: -0.09,–,–,–,inactive: 0.44,–,–
HTN3 (UniProt P15516),inactive: -0.02,–,–,–,–,–,–,–,–,–,–,inactive: 0.002,–,inactive: -0.001,–,–,–,inactive: 0.403,–,–
INHBE (UniProt P58166),inactive: -0.041,–,inactive: 0.295,–,–,–,–,–,–,–,inactive: 0.021,inactive: -0.004,–,inactive: -0.123,–,inactive: -0.077,–,inactive: 0.072,inactive: -0.019,inactive: -0.076
IFIH1 (UniProt Q9BYX4),inactive: 0.004,–,–,–,–,inactive: 0.135,inactive: 0.101,inactive: 0.135,inactive: -0.034,inactive: -0.024,–,inactive: -0.005,–,inactive: 0.106,inactive: 0.063,–,inactive: -0.113,inactive: 0.236,–,–
ICAM4 (UniProt Q14773),inactive: 0,inactive: 0.112,–,–,inactive: -0.11,inactive: -0.005,inactive: -0.095,–,–,inactive: 0.051,–,inactive: -0.077,inactive: 0.04,inactive: 0.042,inactive: 0.126,–,inactive: 0.024,inactive: 0.128,–,–
"IGKV1D-33, A0A2Q2TTZ9",inactive: 0.208,–,–,–,–,–,–,–,–,–,–,inactive: 0.275,–,inactive: -0.178,–,–,–,inactive: 0.41,–,–
IGHA2 (UniProt P01877),inactive: -0.261,inactive: 1.22,–,–,–,–,–,–,–,–,–,inactive: 0.334,–,inactive: -0.443,–,–,–,inactive: -0.133,–,–
IDH3A isoform 2 (UniProt P50213),inactive: -0.078,–,–,inactive: -0.034,inactive: 0.116,inactive: -0.031,inactive: 0.054,inactive: -0.02,inactive: -0.034,inactive: -0.003,–,inactive: -0.253,inactive: -0.013,inactive: 0.196,inactive: -0.002,–,inactive: -0.023,inactive: 0.17,–,–
IL6ST (UniProt P40189),inactive: 0.135,–,–,–,–,–,–,–,–,–,–,inactive: 0.397,–,inactive: -0.342,–,–,–,inactive: -0.348,–,–
IFT46 isoform 2 (UniProt Q9NQC8),inactive: -0.046,–,–,inactive: -0.031,–,inactive: 0.058,inactive: -0.215,inactive: 0.334,inactive: -0.086,–,inactive: 0.045,inactive: -0.099,–,inactive: 0.325,inactive: 0.085,inactive: -0.128,–,inactive: 0.29,inactive: -0.117,inactive: 0
IFT81 (UniProt Q8WYA0),inactive: -0.24,inactive: 0.116,–,–,–,–,–,–,–,inactive: 0.054,inactive: -0.076,inactive: 0.282,–,inactive: -0.276,–,inactive: -0.079,inactive: -0.142,inactive: -0.046,–,–

# Looked up above.
# For log2 fold change [5], IGHA2 (UniProt P01877) shows inactive: 0.334
# For log2 fold change (gandotinib), IGKV3-20 (UniProt P01619) shows inactive: -0.09

# Only log2 fold change [6] (2 entries from above):
Target	log2 fold change [6]
IMMP1L (UniProt Q96LU5)	inactive: -0.072
IGHG3 (UniProt P01860)	inactive: 0.171
